Assay results: article PMC2862300
These are yes or no findings as the source states them, for the method shown. Binding seen in cells or lysates may run through a third protein. Some results given as binding are weak or reduced against the parent protein; the word gives no strength.

The chains behind the UniProt entries cited, without tags or fusion partners. Where a name states a change or a piece, a line headed by the entry shows the natural chain unless it says otherwise. A line that says so, or that is headed by a name, gives the form on record, which may keep a tag or linker.
Xenopus Nedd4 tagged with a Myc tag (1M-Nedd4) (O42573, form named): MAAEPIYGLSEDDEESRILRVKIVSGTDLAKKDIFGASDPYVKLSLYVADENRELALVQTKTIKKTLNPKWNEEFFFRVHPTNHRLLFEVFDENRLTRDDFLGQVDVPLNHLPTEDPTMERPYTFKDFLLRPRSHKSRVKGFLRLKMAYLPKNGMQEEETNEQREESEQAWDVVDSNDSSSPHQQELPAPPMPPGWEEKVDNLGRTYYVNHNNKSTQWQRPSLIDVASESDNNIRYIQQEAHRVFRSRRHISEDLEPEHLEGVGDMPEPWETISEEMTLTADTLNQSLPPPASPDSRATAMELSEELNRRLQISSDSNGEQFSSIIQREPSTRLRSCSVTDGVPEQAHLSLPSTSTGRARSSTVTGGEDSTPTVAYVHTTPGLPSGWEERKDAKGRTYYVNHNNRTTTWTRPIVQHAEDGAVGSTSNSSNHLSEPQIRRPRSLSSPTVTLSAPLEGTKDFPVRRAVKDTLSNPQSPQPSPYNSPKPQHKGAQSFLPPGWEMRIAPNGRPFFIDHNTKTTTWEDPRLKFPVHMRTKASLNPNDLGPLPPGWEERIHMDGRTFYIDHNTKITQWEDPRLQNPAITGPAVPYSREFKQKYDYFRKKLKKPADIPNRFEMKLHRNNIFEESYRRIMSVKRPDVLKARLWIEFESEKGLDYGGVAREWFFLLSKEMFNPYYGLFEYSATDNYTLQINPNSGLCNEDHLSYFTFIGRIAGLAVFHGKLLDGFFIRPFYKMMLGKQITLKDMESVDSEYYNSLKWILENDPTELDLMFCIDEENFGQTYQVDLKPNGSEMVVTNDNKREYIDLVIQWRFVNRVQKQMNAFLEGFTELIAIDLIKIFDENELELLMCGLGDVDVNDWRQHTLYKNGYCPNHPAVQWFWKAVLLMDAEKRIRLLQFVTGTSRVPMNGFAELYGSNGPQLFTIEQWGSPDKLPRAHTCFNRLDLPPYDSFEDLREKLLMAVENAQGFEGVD

Assays:
[1] = target: Xenopus Nedd4 tagged with a Myc tag (1M-Nedd4) (Xenopus) (UniProt O42573); experiment: co-IP; both co-transfected in HEK293T cells, treated with 25 uM LnLL (proteasome inhibitor) for 16 hr; lysed in IP buffer (50 mM HEPES pH 7.4, 50 mM NaCl, 1 mM EDTA, 1 mM EGTA, 1% Triton X-100) with 50 uM LnLL; IP with anti-Myc 9E10 or anti-GFP or control mouse IgG, Protein G-Sepharose; western blot with anti-Myc and anti-GFP
[2] = target: Xenopus PTEN tagged with EGFP (GFP-PTEN) (Xenopus) (UniProt Q9PUT6); experiment: as above

Row | binding [1] | binding [2] | Substance
1 | binds | – | Xenopus PTEN tagged with EGFP (GFP-PTEN) (from UniProt Q9PUT6 1-402) (enzyme)
2 | – | binds | Xenopus Nedd4 tagged with a Myc tag (1M-Nedd4) (from UniProt O42573 1-971) (enzyme)
